According to US20040253247A1:
No constants are given. Whether binding was seen depends on the method and setting. Some binding calls cover weakened binding; strength is not graded here. For some assays here: Sequences can lack the tags named with a protein.

Amino acid sequences for entries named in this document (tags omitted). Residues count along the entry.
UniProt P49065, residues 25-608: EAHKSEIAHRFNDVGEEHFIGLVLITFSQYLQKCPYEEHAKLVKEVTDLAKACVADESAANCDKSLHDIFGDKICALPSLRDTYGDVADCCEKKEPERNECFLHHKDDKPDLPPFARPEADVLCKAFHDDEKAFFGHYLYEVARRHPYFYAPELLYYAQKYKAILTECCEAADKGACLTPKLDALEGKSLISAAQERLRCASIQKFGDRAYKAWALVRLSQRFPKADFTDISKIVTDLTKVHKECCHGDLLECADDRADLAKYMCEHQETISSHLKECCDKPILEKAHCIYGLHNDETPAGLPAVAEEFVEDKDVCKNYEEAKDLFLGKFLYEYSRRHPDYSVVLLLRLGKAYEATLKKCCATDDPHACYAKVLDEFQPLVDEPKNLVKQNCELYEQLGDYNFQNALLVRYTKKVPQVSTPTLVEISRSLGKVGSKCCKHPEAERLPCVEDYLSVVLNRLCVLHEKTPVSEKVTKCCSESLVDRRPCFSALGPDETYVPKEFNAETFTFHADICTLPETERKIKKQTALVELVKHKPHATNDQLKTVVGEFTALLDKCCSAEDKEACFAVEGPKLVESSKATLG
UniProt P02770, residues 25-608: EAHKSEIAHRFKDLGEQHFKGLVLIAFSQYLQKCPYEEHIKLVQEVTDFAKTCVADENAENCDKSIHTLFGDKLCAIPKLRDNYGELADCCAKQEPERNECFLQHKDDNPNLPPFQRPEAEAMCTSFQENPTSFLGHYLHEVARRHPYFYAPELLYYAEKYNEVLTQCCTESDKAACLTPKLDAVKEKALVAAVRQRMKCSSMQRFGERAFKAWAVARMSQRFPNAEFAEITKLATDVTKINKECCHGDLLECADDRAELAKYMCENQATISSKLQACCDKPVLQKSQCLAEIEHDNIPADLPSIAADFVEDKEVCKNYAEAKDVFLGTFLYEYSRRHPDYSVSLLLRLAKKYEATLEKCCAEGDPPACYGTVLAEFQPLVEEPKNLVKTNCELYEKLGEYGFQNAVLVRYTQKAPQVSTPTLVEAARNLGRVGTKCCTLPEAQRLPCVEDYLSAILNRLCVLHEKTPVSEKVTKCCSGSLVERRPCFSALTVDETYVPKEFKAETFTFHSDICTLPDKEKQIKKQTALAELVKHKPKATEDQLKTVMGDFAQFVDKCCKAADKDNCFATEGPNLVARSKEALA

The binders below were run against rabbit albumin (rabbit) (UniProt P49065) (assay: phage ELISA).

Row | Binder | binding
1 | QGDFWDICLPRWGCLSGEGY [RB-B10] | binds
2 | RWQTEDVCLPKWGCLFGDGV [RB-B1] | binds
3 | QRHMMDFCLPKWGCLWGDGY [RB-R4] | binds
4 | QRPIMDFCLPKWGCLWEDGF [RB-R7] | binds
5 | ERQMVDFCLPKWGCLWGDGF [RB-R11] | binds
6 | GENWCDSTLMAYDLCGQVNM [BA] | binds
7 | MDELAFYCGIWECLMHQEQK [BB] | binds
8 | DLCDVDFCWF [BC] | binds
9 | KSCSELHWLLVEECLF [BD] | binds

Each binder was assayed against rat albumin (rat) (UniProt P02770) (assay: phage ELISA).

Row | Binder | binding
10 | QGDFWDICLPRWGCLSGEGY [RB-B10] | binds
11 | RWQTEDVCLPKWGCLFGDGV [RB-B1] | binds
12 | QRHMMDFCLPKWGCLWGDGY [RB-R4] | binds
13 | QRPIMDFCLPKWGCLWEDGF [RB-R7] | binds
14 | ERQMVDFCLPKWGCLWGDGF [RB-R11] | binds

The binders below were run against IgG-Fc [IgG part: P01857] (assay: phage selection on IgG-Fc; not individually assayed (N/A)).

Row | Binder | binding
15 | KEASCSYWLGELVWCDTLTE | binds
16 | KEASCSYWLGELVWCSGVEG | binds
17 | KEASCSYWLGELVWCSAGVE | binds
18 | ESEDCSYWLGELVWCVAGVE | binds
19 | EKEDCSYWLGELVWCVAGVE | binds
20 | EDPDCSYWLGELVWCVAGVE | binds
21 | EEADCSYWLGELVWCVAGVE | binds
22 | NADDCSYWLGELVWCVAGVE | binds
23 | SETTCSYWLGELVWCVAGVE | binds
24 | AWKTCQWLGELVWCVAGVE | binds
25 | KEAECSYHLGELVWCVAGVE | binds
26 | KEASCSYWLGELVWCDDGVE | binds
27 | KEASCSYWLGELVWCSEGVE | binds
28 | KEASCSYWLGEVWKCKSGVE | binds
29 | KEASCSYWLGELVWCDNGVE | binds
30 | KEASCSYWLGELVWCEDTLE | binds
31 | KEASCSYWLGELVWCEDTME | binds
32 | KEASCSYWLGELVWCEDMME | binds

Row | Binder | binding
33 | KEASCSYWLGELVWCDWMNG | binds
34 | KEASCSYWLGELVWCDDTPV | binds
35 | KEASCSYWLGELVWCDDYGE | binds
36 | KEASCSYWLGELVWCSDLWE | binds
37 | WRGGCSWHMGELVWCEHDME | binds
38 | AVSKCSFHMGELVWCSDVMN | binds
39 | NQVSCSYSRGELVWCSKQSQ | binds
40 | GRMECAWHQGELVWCTPTLE | binds
41 | GTMECSWHQGELVWCTPTLA | binds
42 | EMRDCSWHLGELVWCAHMEG | binds
43 | GSWECAYHLGELVWCETGSG | binds
44 | VAEPCAYHLGELVWCEVLKG | binds
45 | KEAMCSYWLGELVWCESDMP | binds
46 | GVADCAWHLGELVWCTERED | binds
47 | RVASCAWHLGELVWCDGLDG | binds
48 | GEADCAWHLGELVWCTPMDL | binds
49 | GEQDCSWHLGELVWCTPMEV | binds
50 | GMRDCSYHLGELVWCSDMEL | binds

The binders below were run against IgG-Fc [IgG part: P01857] (assay: general note of Table I; phage clone, M13/gIII display, EC50 in its own row).

Row | Binder | binding
51 | GEADCSYHLGELVWCNDFEE | binds
52 | WVDCAYHLGELVWCSTFEE | binds
53 | WVEDCAWHMGELVWCTKVDE | binds
54 | READCAWHLGELVWCSERDL | binds
55 | EEASCAYHLGELVWCDAFDV | binds
56 | GEADCAWHLGELVWCTKVEE | binds
57 | GEASCAYHLGELVWCDEGEG | binds
58 | RVEDCAYHLGELVWCTEGDE | binds
59 | EEPDCSWHLGELVMCTPMEV | binds
60 | KEADCAWHMGELVWCSEMEG | binds
61 | EQADCAWHLGELVWCTPMVF | binds
62 | EEPDCSWHLGELVWCTPIEV | binds
63 | GEPDCAWHLGELVWCTPMVF | binds
64 | GEQDCSYHMGELVWCTTVDG | binds
65 | GVRNCAYHLGELVWCTPMEF | binds
66 | RVADCAWHMGELVWCSELEV | binds
67 | EVADCSWHLGELVWCTEGEF | binds
68 | GEEDCAWHLGELVWCTDVED | binds
69 | EVEDCAYHLGELVWCSDLEG | binds
70 | WEEDCAWHLGELVWCAEFDE | binds
71 | KEASCAWHLGELVWCSEVEE | binds
